{"sequences": {"note": "The chains behind the UniProt entries cited, without tags or fusion partners.", "UniProt Q0JBA9, entry or part of it": "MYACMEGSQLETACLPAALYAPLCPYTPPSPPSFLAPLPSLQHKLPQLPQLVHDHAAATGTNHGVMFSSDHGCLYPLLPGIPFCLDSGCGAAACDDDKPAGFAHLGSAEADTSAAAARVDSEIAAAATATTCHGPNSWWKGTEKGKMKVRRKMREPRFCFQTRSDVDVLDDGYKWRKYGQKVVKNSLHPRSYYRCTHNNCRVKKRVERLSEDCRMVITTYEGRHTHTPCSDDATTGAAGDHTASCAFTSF"}, "source": "paper PMC7819943", "about": "“Rice protein-binding microarrays: a tool to detect cis-acting elements near promoter regions in rice”", "note": "This is one part of the list."}
{"biological_target": "OsWRKY34 (Oryza sativa, UniProt Q0JBA9 1-250)", "experiment": "protein-binding microarray (RPBM); PBS, 2% BSA, 51.3 ng/ul salmon testes DNA, 50 uM zinc acetate, 200 nM TF, 25 C, 1 h; high values mean tight binding", "conditions": "protein: recombinant; tags: N-terminal polyhistidine and DsRed monomer fusion (pET32a); label: CyDye5-dUTP incorporated in the synthesized complementary strand; 3' TTTTT single-stranded linker to array surface; dsDNA, one strand shown", "procedure,_shortened": "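An Axon 4000B scanner gave the binding signal as per-feature fluorescence intensity in arbitrary units. This followed washing of a custom Agilent array that had been incubated for 1 h at 25 °C with 200 nM protein in PBS, 2% BSA, salmon testes DNA and 50 µM zinc acetate. The proteins were transcription factors fused at the N-terminus to polyhistidine and DsRed, expressed in E. coli BL21-CodonPlus and purified on Ni–NTA.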"}
{"sequence": "TATTAGCACTTCACCTGCTTCATTGTTTGTATTGACAAATCGGAGTCACCTAGTGCAG", "binding signal": "9520 fluorescence intensity (a.u.)"}
{"sequence": "GTTGAGTTGGATGGGGAATTGAAGTTGAATTTTCTGGAGACGGAGTCACCTAGTGCAG", "binding signal": "8200 fluorescence intensity (a.u.)"}
{"sequence": "ATCCCTCACTTGAACTTTTTTTCATTATCTCGAGCATAAGCGGAGTCACCTAGTGCAG", "binding signal": "9150 fluorescence intensity (a.u.)"}
{"sequence": "TTTTTTCTCTTCGCTGCTACCGAGTCTCTTCTGTTCTCTCCGGAGTCACCTAGTGCAG", "binding signal": "13700 fluorescence intensity (a.u.)"}
{"sequence": "GGTCTTGCTAGTTGGCCATGTGAGAGTGAGACCGGGTCTCCGGAGTCACCTAGTGCAG", "binding signal": "50700 fluorescence intensity (a.u.)"}
{"sequence": "TTCCGACTGCACTGATCCGCCCGCCCTTCTCTCGCTCTGCCGGAGTCACCTAGTGCAG", "binding signal": "10500 fluorescence intensity (a.u.)"}
{"sequence": "GGCCATCGCCATGTTCGTCTCCGTGCTGTCCTTCGTCGTCCGGAGTCACCTAGTGCAG", "binding signal": "14400 fluorescence intensity (a.u.)"}
{"sequence": "GAACCACTCCGTCCTCTCCTCGCCCACCGCCGCCGCCGCCCGGAGTCACCTAGTGCAG", "binding signal": "8960 fluorescence intensity (a.u.)"}
{"sequence": "AGAGGCGTTTTAGGTAGGAGTTCATTGTTGCCGGATTCCCCGGAGTCACCTAGTGCAG", "binding signal": "8060 fluorescence intensity (a.u.)"}
{"sequence": "AACCCTCCCGGCCCCGGAAATCCCACGAATCCGCAAACCACGGAGTCACCTAGTGCAG", "binding signal": "8200 fluorescence intensity (a.u.)"}
{"sequence": "TTTACAATTTTTTCATGCCCAAATTTTATGGGTTAAGCTACGGAGTCACCTAGTGCAG", "binding signal": "8080 fluorescence intensity (a.u.)"}
{"sequence": "TATACTTATATGCATACAATTTTCATATATCTATATTCCTCGGAGTCACCTAGTGCAG", "binding signal": "8290 fluorescence intensity (a.u.)"}
{"sequence": "CACCACCTGCTCCACATTTTCAGCTTTGCCTTCCTTGCCACGGAGTCACCTAGTGCAG", "binding signal": "9560 fluorescence intensity (a.u.)"}
{"sequence": "GAATTCTCATGCATACACATTTCCTTTTTTTTCCCTTCAACGGAGTCACCTAGTGCAG", "binding signal": "9470 fluorescence intensity (a.u.)"}
{"sequence": "AGCTTATCCTCACTTAGTTAGTGCTTAAATGATTAATCTACGGAGTCACCTAGTGCAG", "binding signal": "8780 fluorescence intensity (a.u.)"}
{"sequence": "GTTCATATAGTACGTACTTTTATTCGTTAGTATATATGACCGGAGTCACCTAGTGCAG", "binding signal": "9410 fluorescence intensity (a.u.)"}
{"sequence": "GGAATTTCTCTTTCTACACAACTGTTTGCGTCAACATATACGGAGTCACCTAGTGCAG", "binding signal": "9030 fluorescence intensity (a.u.)"}
{"sequence": "TGCACTTCTCCACTTCACTCCTCGTCTCTTGCCGTCTTTTCGGAGTCACCTAGTGCAG", "binding signal": "13200 fluorescence intensity (a.u.)"}
{"sequence": "CAACCCGTTACTAGTTTGACCTCACCTGTGACAGGTGTTACGGAGTCACCTAGTGCAG", "binding signal": "9670 fluorescence intensity (a.u.)"}
{"sequence": "TATAGTATGCACGGTGCGCGGGGTGGTATTTTTTGTGAAACGGAGTCACCTAGTGCAG", "binding signal": "8630 fluorescence intensity (a.u.)"}
{"sequence": "GCATTTCTTGTGTCCCAATCTGGGATGGACTTGATCTGACCGGAGTCACCTAGTGCAG", "binding signal": "8380 fluorescence intensity (a.u.)"}
{"sequence": "GCCGCGACACGTTTTTGGCAACTTCTACGCGCGGCCGTCGCGGAGTCACCTAGTGCAG", "binding signal": "9360 fluorescence intensity (a.u.)"}
{"sequence": "TTTGTTTTTTCCAGTTTGGCCAACCAAGACAGATATATTACGGAGTCACCTAGTGCAG", "binding signal": "9660 fluorescence intensity (a.u.)"}
